From the supplement of paper PMC4604168 (melanoma cell lines)
The other results are listed elsewhere or left out. Single values are uncertain, as repeats are few or missing.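 Imaging used 1,536-well plates; nuclei positive for cleaved PARP by antibody were divided by total DNA-stained nuclei to yield the apoptosis fraction. Doses for screening kept most cells viable, and cell lines differ markedly in resting and induced cleaved-PARP levels.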

The compounds below were run on LB2518-MEL (assay: cleaved PARP positive nuclei fraction relative to DMSO control; melanoma cells; higher = more apoptosis). Details: library dose: low library concentration; 72 h.
For O=C(CCCCCCC(=O)Nc1ccccc1)NO [vorinostat] + COc1ccc2c(c1)CCC1C2CCC2(C)C(NCCCCCCN3C(=O)C=CC3=O)CCC12 [U73122] (first compound 0.08 µM, partner dose 0.4 µM), the “cleaved PARP positive nuclei fraction” value was 81.8%. In the case of Cn1nnc2c(C(N)=O)ncn2c1=O [temozolomide] + COc1ccc(COc2ccc(Cc3cnc(N)nc3N)cc2OC)cc1 [GW2580] (first compound 2 µM, partner dose 1 µM), the “cleaved PARP positive nuclei fraction” value is reported as 73.6%. In the case of OCCn1cc(-c2cnc3nnn(Cc4ccc5ncccc5c4)c3n2)cn1 + COc1ccc(-c2ccc3c(N4CCOCC4)nc(N4C[C@@H](C)O[C@@H](C)C4)nc3n2)cc1CO [KU0063794] (first compound 1 µM, partner dose 0.02 µM), the “cleaved PARP positive nuclei fraction” value is reported as 89.5%. In the case of Cc1ccc(NC(=O)c2cccc(N(C)C)c2)cc1NC(=O)c1ccc(O)cc1 + Cn1cc(/C=C2\C(=O)Nc3cccnc32)c2ccccc21 [GW441756] (first compound 2 µM, partner dose 0.4 µM), the “cleaved PARP positive nuclei fraction” value is reported as 379%. With Cc1ccc(NC(=O)c2cccc(N(C)C)c2)cc1NC(=O)c1ccc(O)cc1 + CCCCCCCCCCCC1=C(O)C(=O)C=C(O)C1=O [Embelin] (first compound 2 µM, partner dose 1.2 µM) the “cleaved PARP positive nuclei fraction” value was 203%. In the case of Cn1cncc1[C@@](N)(c1ccc(Cl)cc1)c1ccc2c(c1)c(-c1cccc(Cl)c1)cc(=O)n2C [tipifarnib] + Cc1cc([N+](=O)[O-])ccc1NS(=O)(=O)c1cc(Cl)ccc1Cl [FH535] (first compound 0.01 µM, partner dose 1 µM), the “cleaved PARP positive nuclei fraction” value is reported as 102%. For Cn1c(Nc2ccc(C(F)(F)F)cc2)nc2cc(Oc3ccnc(-c4ncc(C(F)(F)F)[nH]4)c3)ccc21 + COc1ccc2c(c1)CCC1C2CCC2(C)C(NCCCCCCN3C(=O)C=CC3=O)CCC12 [U73122] (first compound 0.08 µM, partner dose 0.4 µM), the “cleaved PARP positive nuclei fraction” value was 194%. With Cn1cncc1[C@@](N)(c1ccc(Cl)cc1)c1ccc2c(c1)c(-c1cccc(Cl)c1)cc(=O)n2C [tipifarnib] + Oc1cc(-c2nc(-c3ccccc3)[nH]c2-c2ccncc2)ccc1Cl [L779450] (first compound 0.01 µM, partner dose 0.2 µM) the “cleaved PARP positive nuclei fraction” value was 283%. For OCCn1cc(-c2cnc3nnn(Cc4ccc5ncccc5c4)c3n2)cn1 + O=C(O)C(=O)Nc1sc2c(c1C(=O)O)CCNC2 [TCS401] (first compound 1 µM, partner dose 1.66667 µM), the “cleaved PARP positive nuclei fraction” value was 87.9%. C=CCn1c(=O)c2cnc(Nc3ccc(N4CCN(C)CC4)cc3)nc2n1-c1cccc(C(C)(C)O)n1 + Oc1nc(-c2ccc(C(F)(F)F)cc2)nc2c1CSCC2 [XAV939] (first compound 0.02 µM, partner dose 2 µM) was tested, and the “cleaved PARP positive nuclei fraction” value was 80.9%. For Nc1cccc2c1CN(C1CCC(=O)NC1=O)C2=O (centres undefined) [lenalidomide] + CCCCCCCCCCCC1=C(O)C(=O)C=C(O)C1=O [Embelin] (first compound 1 µM, partner dose 1.2 µM), the “cleaved PARP positive nuclei fraction” value was 79.5%. For C[C@@H]1CCN(C(=O)CC#N)C[C@@H]1N(C)c1ncnc2[nH]ccc12 + Oc1cc(-c2nc(-c3ccccc3)[nH]c2-c2ccncc2)ccc1Cl [L779450] (first compound 1 µM, partner dose 0.2 µM), the “cleaved PARP positive nuclei fraction” value was 85.4%. For Cc1cc(N2CCOCC2)cc2[nH]c(-c3c(NC[C@@H](O)c4cccc(Cl)c4)cc[nH]c3=O)nc12 + Cc1cc([N+](=O)[O-])ccc1NS(=O)(=O)c1cc(Cl)ccc1Cl [FH535] (first compound 0.2 µM, partner dose 1 µM), the “cleaved PARP positive nuclei fraction” value was 101%. With C=CCn1c(=O)c2cnc(Nc3ccc(N4CCN(C)CC4)cc3)nc2n1-c1cccc(C(C)(C)O)n1 + O=C1NC(=O)/C(=C/c2ccc(-c3ccc(F)cc3O)o2)S1 [AS252424] (first compound 0.02 µM, partner dose 1 µM) the “cleaved PARP positive nuclei fraction” value was 185%. With Cc1ccc(NC(=O)c2cccc(N(C)C)c2)cc1NC(=O)c1ccc(O)cc1 + N#Cc1c(O)c2c(-c3ccc(-c4ccccc4O)cc3)csc2[nH]c1=O [A769662] (first compound 2 µM, partner dose 2 µM) the “cleaved PARP positive nuclei fraction” value was 166%. For Cn1cncc1[C@@](N)(c1ccc(Cl)cc1)c1ccc2c(c1)c(-c1cccc(Cl)c1)cc(=O)n2C [tipifarnib] + CCN(CC)CCCCNc1ncc2cc(-c3cc(OC)cc(OC)c3)c(NC(=O)NC(C)(C)C)nc2n1 [PD173074] (first compound 0.01 µM, partner dose 0.1 µM), the “cleaved PARP positive nuclei fraction” value was 236%. O=C(CCCCCCC(=O)Nc1ccccc1)NO [vorinostat] + CCCCCCCCCCCC1=C(O)C(=O)C=C(O)C1=O [Embelin] (first compound 0.08 µM, partner dose 1.2 µM) was tested, and the “cleaved PARP positive nuclei fraction” value was 85%. Cn1nnc2c(C(N)=O)ncn2c1=O [temozolomide] + Cn1cc(/C=C2\C(=O)Nc3cccnc32)c2ccccc21 [GW441756] (first compound 2 µM, partner dose 0.4 µM) was tested, and the “cleaved PARP positive nuclei fraction” value was 53.9%. Nc1cccc2c1CN(C1CCC(=O)NC1=O)C2=O (centres undefined) [lenalidomide] + COc1cc2ncnc(Nc3ccc(Oc4ccccc4)cc3)c2cc1OC [SrcI1] (first compound 1 µM, partner dose 2 µM) was tested, and the “cleaved PARP positive nuclei fraction” value was 79.2%. With COc1cc(Nc2ncc(F)c(Nc3ccc4c(n3)NC(=O)C(C)(C)O4)n2)cc(OC)c1OC [Tamatinib] + CCc1ccc(CCOc2ccc(CC3SC(=O)NC3=O)cc2)nc1 [pioglitazone] (first compound 0.4 µM, partner dose 2 µM) the “cleaved PARP positive nuclei fraction” value was 84.7%. With Cc1nc(Nc2ncc(C(=O)Nc3c(C)cccc3Cl)s2)cc(N2CCN(CCO)CC2)n1 [dasatanib] + COc1cc(N2CCC(N3CCN(C)CC3)CC2)ccc1Nc1ncc(Cl)c(Nc2ccccc2S(=O)(=O)C(C)C)n1 [NVP-TAE684] (first compound 0.004 µM, partner dose 0.08 µM) the “cleaved PARP positive nuclei fraction” value was 174%. With Cn1c(Nc2ccc(C(F)(F)F)cc2)nc2cc(Oc3ccnc(-c4ncc(C(F)(F)F)[nH]4)c3)ccc21 + Cc1cc([N+](=O)[O-])ccc1NS(=O)(=O)c1cc(Cl)ccc1Cl [FH535] (first compound 0.08 µM, partner dose 1 µM) the “cleaved PARP positive nuclei fraction” value was 356%. For O=C(CCCCCCC(=O)Nc1ccccc1)NO [vorinostat] + O=S(=O)(c1ccccc1)N(CC(F)(F)F)c1ccc(C(O)(C(F)(F)F)C(F)(F)F)cc1 [T0901317] (first compound 0.08 µM, partner dose 1.4 µM), the “cleaved PARP positive nuclei fraction” value was 81%. For CC(C)(C)c1cnc(CSc2cnc(NC(=O)C3CCNCC3)s2)o1 + CCc1ccc(CCOc2ccc(CC3SC(=O)NC3=O)cc2)nc1 [pioglitazone] (first compound 0.01 µM, partner dose 2 µM), the “cleaved PARP positive nuclei fraction” value was 77.8%. COc1cc(Nc2ncc(F)c(Nc3ccc4c(n3)NC(=O)C(C)(C)O4)n2)cc(OC)c1OC [Tamatinib] + Cn1cc(/C=C2\C(=O)Nc3cccnc32)c2ccccc21 [GW441756] (first compound 0.4 µM, partner dose 0.4 µM) was tested, and the “cleaved PARP positive nuclei fraction” value was 85.1%. For C#Cc1cccc(Nc2ncnc3cc(OCCOC)c(OCCOC)cc23)c1 [erlotinib] + N#Cc1c(O)c2c(-c3ccc(-c4ccccc4O)cc3)csc2[nH]c1=O [A769662] (first compound 0.8 µM, partner dose 2 µM), the “cleaved PARP positive nuclei fraction” value was 93.7%. With OCCn1cc(-c2cnc3nnn(Cc4ccc5ncccc5c4)c3n2)cn1 + COc1cc(N2CCC(N3CCN(C)CC3)CC2)ccc1Nc1ncc(Cl)c(Nc2ccccc2S(=O)(=O)C(C)C)n1 [NVP-TAE684] (first compound 1 µM, partner dose 0.08 µM) the “cleaved PARP positive nuclei fraction” value was 104%. O=C(Nc1cccc(Cl)c1)Nc1ncc(CCNc2ncnc3ccsc23)s1 + COc1ccc(COc2ccc(Cc3cnc(N)nc3N)cc2OC)cc1 [GW2580] (first compound 0.0008 µM, partner dose 1 µM) was tested, and the “cleaved PARP positive nuclei fraction” value was 94.7%. For Cc1nc(Nc2ncc(C(=O)Nc3c(C)cccc3Cl)s2)cc(N2CCN(CCO)CC2)n1 [dasatanib] + O=C1NC(=O)/C(=C/c2ccc(-c3ccc(F)cc3O)o2)S1 [AS252424] (first compound 0.004 µM, partner dose 1 µM), the “cleaved PARP positive nuclei fraction” value was 200%. For C[C@]1(c2nc3c(C(N)=O)cccc3[nH]2)CCCN1 [Veliparib] + Cc1cc([N+](=O)[O-])ccc1NS(=O)(=O)c1cc(Cl)ccc1Cl [FH535] (first compound 1.4 µM, partner dose 1 µM), the “cleaved PARP positive nuclei fraction” value was 99.5%. For C[C@@H]1CCN(C(=O)CC#N)C[C@@H]1N(C)c1ncnc2[nH]ccc12 + COc1cc2ncnc(Nc3ccc(Oc4ccccc4)cc3)c2cc1OC [SrcI1] (first compound 1 µM, partner dose 2 µM), the “cleaved PARP positive nuclei fraction” value was 78.9%. With CC1(C)NC(=O)N(c2ccc([N+](=O)[O-])c(C(F)(F)F)c2)C1=O [nilutamide] + c1cc(-c2cnn3cc(-c4ccc(OCCN5CCCCC5)cc4)cnc23)ccn1 [Dorsomorphin] (first compound 1 µM, partner dose 0.4 µM) the “cleaved PARP positive nuclei fraction” value was 85.7%. In the case of C[C@@H]1CCN(C(=O)CC#N)C[C@@H]1N(C)c1ncnc2[nH]ccc12 + c1cc(-c2cnn3cc(-c4ccc(OCCN5CCCCC5)cc4)cnc23)ccn1 [Dorsomorphin] (first compound 1 µM, partner dose 0.4 µM), the “cleaved PARP positive nuclei fraction” value is reported as 88.7%. NC(=O)Nc1cc(-c2cccc(F)c2)sc1C(=O)N[C@H]1CCCNC1 + O=S(=O)(c1ccccc1)N(CC(F)(F)F)c1ccc(C(O)(C(F)(F)F)C(F)(F)F)cc1 [T0901317] (first compound 0.02 µM, partner dose 1.4 µM) was tested, and the “cleaved PARP positive nuclei fraction” value was 59.8%.
